US20230071321A1 (VIB VZW, published 2023)
These are yes or no findings as the source states them, for the method shown. Binding calls can cover weak binding; strength is not graded here. For some assays here: Binding seen in cells or lysates may run through a third protein.

B1: Nanobody CA4140 (VHH)
VHH: QVQLQESGGGLVQPGGSLRLSCAASGSIFSINAMGWYRQAPGKQRELVAAITSGGSTNYADSVKGRFTISRDNAENTVYLQMNNLKPEDTAVYSCNAEGTSGSSRYRRRYEYWGKGTQVTVSS
B2: Nanobody CA4142 (VHH)
VHH: QVQLQESGGGLVRTGGSLRLSCAGSGSFFSINPMGWYRQAPGQQRELVATITGSGSTNYADSVKGRFTISRDNAKNTLYLQMNSLKPEDTAVYYCNAGYFDRIGRRYDRWGQGTQVTVSS
B3: Nanobody CA4143 (VHH)
VHH: QVQLQESGGGLVQPGGSLRLSCAASGFTFSSYAMSWVRQAPGKGLEWVSTINSGGRSANYADSVKGRLTISRDNAKNTLHLQMNSLKPEDTALYYCARPRSVSRNYVPLGYDYLGQGTQVTVSS
B4: Nanobody CA4500 (VHH)
VHH: QVQLQESGGGLVQAGGSLRLSCAASGSTSGIIAMGWYRQAPGKQRELVARISSGSSTNYADSVKGRFTVSRDNAKNTVYLQMNSLKPEDTAVYYCNAVRRGYRNDYNSWGQGTQVTVSS

Experiments:
[1] = target: hCXCR4Rho1D4 (full-length human CXCR4 receptor with C-terminal Rho1D4 tag) (human); assay: retention of the His-tagged Nanobody in P. pastoris membrane fractions with or without hCXCR4 co-expression, anti-His immunoblot
[2] = target: hCXCR4Rho1D4 (full-length human CXCR4 receptor with C-terminal Rho1D4 tag) (human); assay: co-purification of the receptor on a Ni2+ affinity column through the hexaHis-tagged Nanobody, anti-Rho1D4 immunoblot

Binder | binding [1] | binding [2]
B1 | binds | 
B2 | binds | binds
B3 | binds | 
B4 | binds | 
